The nature of the assay: qHTS Assay to Find Inhibitors of Chronic Active B-Cell Receptor Signaling. The note with it: ABC-DLBCL IkBa-CBG/CBR reporter, luminescence ratio (green luciferase fused to IkBa over red control in TMD8 lymphoma cells), 4 h. In short, it runs like this:
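TMD8 human ABC-DLBCL cells with doxycycline-inducible IκBα–green luciferase fusion and unfused red luciferase, in 0.5% FBS medium; compounds up to 46 uM, 4 h at 37C. Green/red luminescence ratio, filter-overlap corrected, fitted to concentration-response curves.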

Where [1] appears, read: measured here: CBR red luminescence, cell number.

This is one part of the list. Shown are side measurements of this screen, not its main read-out; they come without a call. Most of these compounds were active or inconclusive in the main read-out, so they are no random draw. Words in brackets tell the shape of the fitted curve; partial curves, single points and poor fits give uncertain potencies.

For orientation: AC50 means the midpoint of the concentration-response curve, whichever way the signal moves. Turning to `Cc1cccc(OCC(=O)NNC(=O)C2CCN(c3ncnc4sc(C)c(C)c34)CC2)c1`, under setting [1], the AC50 was 6.51 µM [falling, partial curve, poor fit].

As to `Fc1ccc(Br)cc1C1C=C(c2ccc(Br)cc2)Nc2ncnn21` (centres undefined), the AC50 under setting [1] was 29.1 µM [falling, single point].

Consider `CC(CN1C(C)CCCC1C)OC(=O)c1ccccc1Br` (centres undefined), for which the AC50 under setting [1] is 3.16 µM [rising, single point].

Take `COc1ccc(Cl)cc1N(C(=O)Nc1cccc(Cl)c1)C1=NCC(C)S1` (centres undefined): the AC50 under setting [1] was 18.4 µM [rising, single point].

With `CC(=C\c1ccccc1)/C=C1/SC(=O)N(CCCC(=O)Nc2ccc(C(=O)O)cc2)C1=O`, under setting [1], the AC50 is 10 µM [falling, partial curve].

As for `CNC(=O)/C=C1\NC(C)(C)Cc2ccccc21`, the AC50 under setting [1] is 14.6 µM [falling, single point].

As for `Cc1ccc(C2N(c3ccc(Cl)cc3)C(=O)N3CCCN23)cc1` (centres undefined), the AC50 under setting [1] was 0.355 µM [rising, full curve, poor fit].

As to `O=C(NCc1ccco1)[C@@H]1CCCN1C(=O)c1cccs1`, the AC50 under setting [1] is 0.366 µM [rising, full curve, poor fit].

In the case of `O=C(NNC(=S)Nc1ccc(F)c(Cl)c1)c1ccccc1Br`, under setting [1], the AC50 was 15.8 µM [falling, single point].

As for `O=C(COc1ccc(/C=N/NC(=O)c2ccc(O)cc2)cc1)Nc1ccc([N+](=O)[O-])cc1`, under setting [1], the AC50 was 0.92 µM [falling, full curve].

Regarding `CC(OC(=O)c1cccs1)C(=O)NCc1cccs1` (centres undefined), under setting [1], the AC50 was 31.6 µM [rising, single point].

On to `CN(C)/C=C1\C(=O)N(C)N=C1C(F)(F)F`, for which the AC50 by setting is: under setting [1], 35.5 µM [rising, single point]; (measured here: IkBa-CBG green luminescence) 35.5 µM [falling, single point].

On to `O=c1c([N+](=O)[O-])c(NCCN2CCCCCC2)c2ccccc2n1-c1ccccc1`, for which the AC50 under setting [1] was 11.6 µM [falling, partial curve, poor fit].

As to `CN(C)C(=O)c1ccc(NC(=O)COc2ccc([N+](=O)[O-])cc2)cc1`, the AC50 under setting [1] was 12.6 µM [rising, partial curve, poor fit].

As to `Cc1ccc(-c2nc(CN(C)C)cc(CN(C)C)c2O)cc1`, the AC50 under setting [1] is 11.2 µM [falling, partial curve].

As for `O=C(CC1Oc2ccccc2NC1=O)NCCCN1CCCC1=O` (centres undefined), the AC50 under setting [1] was 23.1 µM [falling, single point].

As for `Cc1ccc(NC(=S)NCc2ccccn2)cc1`, under setting [1], the AC50 is 35.5 µM [falling, single point].

Take `CC(C)(C)Nc1nc(C(N)=O)nc(N2CCOCC2)n1`: the AC50 under setting [1] was 1.84 µM [rising, partial curve, poor fit].
